{"sequences": {"note": "Protein sequences, listed by entry. Tags and fused reporters are not part of them.", "UniProt P08684, whole entry": "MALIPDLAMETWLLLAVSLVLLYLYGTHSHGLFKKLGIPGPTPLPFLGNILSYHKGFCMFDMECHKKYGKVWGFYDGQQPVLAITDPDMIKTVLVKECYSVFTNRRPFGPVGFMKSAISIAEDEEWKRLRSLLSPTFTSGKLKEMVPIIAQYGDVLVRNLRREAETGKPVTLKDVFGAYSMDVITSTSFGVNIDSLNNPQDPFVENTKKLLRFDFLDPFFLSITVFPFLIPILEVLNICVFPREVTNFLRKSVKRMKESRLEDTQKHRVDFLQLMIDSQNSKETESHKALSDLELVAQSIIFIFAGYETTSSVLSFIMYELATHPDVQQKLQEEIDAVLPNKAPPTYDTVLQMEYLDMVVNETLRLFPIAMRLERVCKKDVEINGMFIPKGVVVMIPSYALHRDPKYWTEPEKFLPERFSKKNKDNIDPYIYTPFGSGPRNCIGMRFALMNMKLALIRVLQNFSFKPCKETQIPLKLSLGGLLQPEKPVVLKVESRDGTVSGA", "UniProt P11712, whole entry": "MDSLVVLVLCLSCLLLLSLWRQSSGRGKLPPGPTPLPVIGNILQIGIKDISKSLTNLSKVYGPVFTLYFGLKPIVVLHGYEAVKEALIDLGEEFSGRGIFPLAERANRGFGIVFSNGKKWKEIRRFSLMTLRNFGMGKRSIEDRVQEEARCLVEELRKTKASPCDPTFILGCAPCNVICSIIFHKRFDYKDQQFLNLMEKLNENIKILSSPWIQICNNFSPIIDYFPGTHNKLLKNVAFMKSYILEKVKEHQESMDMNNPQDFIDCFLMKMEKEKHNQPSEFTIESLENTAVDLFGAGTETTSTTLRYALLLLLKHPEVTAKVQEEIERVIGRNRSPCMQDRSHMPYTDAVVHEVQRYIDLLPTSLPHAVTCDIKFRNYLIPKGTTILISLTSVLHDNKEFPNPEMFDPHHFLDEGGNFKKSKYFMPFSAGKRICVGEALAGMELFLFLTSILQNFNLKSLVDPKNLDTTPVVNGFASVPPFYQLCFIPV"}, "source": "ChEMBL document CHEMBL6109134", "about": "“Discovery of AMG 193, an MTA-Cooperative PRMT5 Inhibitor for the Treatment of MTAP-Deleted Cancers” (J Med Chem, 2025)", "key": {"[1]": {"conditions": "dog, MDCK-MDR1"}, "[2]": {"assay": "Solubility of compound in Hcl buffer at pH 2.0"}, "[3]": {"assay": "Solubility of compound in PBS buffer at pH 7.4"}, "[4]": {"assay": "Solubility of compound in SIF at pH 6.8", "conditions": "simulated gi fluid"}, "Cytochrome P450 3A4 [5]": {"biological_target": "T1, Cytochrome P450 3A4 (Homo sapiens, UniProt P08684)", "assay": "Inhibition of CYP3A4 (unknown origin)"}, "Cytochrome P450 3A4 [6]": {"biological_target": "T1, Cytochrome P450 3A4"}, "Cytochrome P450 3A4 [7]": {"biological_target": "T1, Cytochrome P450 3A4", "remark": "listed apart in the source"}, "Cytochrome P450 2C9": {"biological_target": "Cytochrome P450 2C9 (Homo sapiens, UniProt P11712)", "assay": "Inhibition of CYP2C9 (unknown origin)"}, "[8]": {"biological_target": "T2, Nuclear receptor subfamily 1 group I member 2 (Homo sapiens, UniProt O75469)", "T2 sequence (O75469 whole entry)": "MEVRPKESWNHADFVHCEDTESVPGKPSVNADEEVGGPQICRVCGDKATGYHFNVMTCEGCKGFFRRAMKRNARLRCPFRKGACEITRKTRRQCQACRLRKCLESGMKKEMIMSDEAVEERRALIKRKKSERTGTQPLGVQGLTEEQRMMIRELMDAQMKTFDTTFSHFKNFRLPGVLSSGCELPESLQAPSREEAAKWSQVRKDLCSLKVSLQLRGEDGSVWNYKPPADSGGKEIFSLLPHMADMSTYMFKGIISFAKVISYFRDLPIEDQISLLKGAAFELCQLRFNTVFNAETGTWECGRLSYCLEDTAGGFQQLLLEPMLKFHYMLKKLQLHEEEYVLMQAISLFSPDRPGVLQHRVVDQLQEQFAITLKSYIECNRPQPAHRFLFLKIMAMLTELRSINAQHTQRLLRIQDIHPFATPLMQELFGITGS", "assay": "Activation of human PXR in human HepG2 cells co-transfected with CYP3A4-luciferase at 10 uM incubated for 1 day relative to control", "conditions": "hepg2, 24 h"}}, "data": [{"smiles": "Cc1cc2cc(C(=O)N(Cc3ccc(C(F)(F)F)cn3)[C@H](C)c3ncccn3)ccc2nc1N", "values": [{"measurement": "permeability", "setting": "[1]", "result": "19 10^-6 cm/s"}, {"measurement": "solubility", "setting": "[2]", "result": "> 500", "unit": "µM"}, {"measurement": "solubility", "setting": "[3]", "result": 343, "unit": "µM"}, {"measurement": "solubility", "setting": "[4]", "result": "> 363", "unit": "µM"}, {"measurement": "IC50", "setting": "Cytochrome P450 3A4 [5]", "result": 20, "unit": "µM"}, {"measurement": "IC50", "setting": "Cytochrome P450 3A4 [6]", "result": 5.4, "unit": "µM"}, {"measurement": "IC50", "setting": "Cytochrome P450 3A4 [7]", "result": "> 50", "unit": "µM"}, {"measurement": "IC50", "setting": "Cytochrome P450 2C9", "result": 21, "unit": "µM"}, {"measurement": "Activity", "setting": "[8]", "result": 24, "unit": "%"}]}]}
